Measurements from PubChem BioAssay AID1347075 (National Center for Advancing Translational Sciences (NCATS), 2019).
Hit rate of the full screen: of about 400,000 compounds, about 5,500 (1.4%) were called active. The shares of active, inactive and inconclusive entries below differ from those in the screen. The call rests on the fitted dose curve; in most records, active means well fitted cell-killing curve with a large enough effect; inconclusive means small, poorly fitted or top-dose-only effect, or effect the other way; inactive means flat fitted curve, though single readings scatter. A potency beside an inconclusive call is a rough fit, not a confirmed value.

Test: qHTS assay for MDR1-selective chemotherapeutics: Primary screen using the parental adenocarcinoma cell KB-3-1; further: nearly all actives have a fitted effect of over 60% in size
Conditions: KB-3-1 viability, CellTiter-Glo ATP luminescence, 72 h; series mostly up to 46.1 µM
Summary of the method: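 Here the drug-naive KB-3-1 line serves as comparator for MDR sub-line selectivity; cells received compound titrations, 72 h at 37 °C, then CellTiter-Glo readout.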
Potency means the concentration at half of the fitted maximal effect.

| Structure (SMILES) | Potency |
| --- | --- |
| COc1ccc(-c2nc(CN3CCN(c4ccccc4OC)CC3)c(C)o2)cc1 | inactive |
| Cc1ccc(C2CC(=O)c3cnc(N4CCN(c5ccccc5)CC4)nc3C2)cc1 (stereo not given) | inconclusive: 0.206 µM [cytotoxic, full curve] |
| COCCN=C1NN=C(c2ccc(C)c([N+](=O)[O-])c2)CS1 | inconclusive: 14.6 µM [cytotoxic, single point] |
| CCCCSCCCNC(=O)c1cn(CC)c2ccc(S(=O)(=O)N(C)C3CCCCC3)cc2c1=O | inconclusive: 29.1 µM [cytotoxic, single point] |
| c1ccc(-c2nc(NCc3ccco3)c3ccccc3n2)nc1 | active: 5.8 µM |
| Clc1ccc(-n2nnnc2-c2ccccc2)cc1 | inactive |
| COc1ccccc1/C=C/C=N/n1c(-c2ccc(Cl)cc2)n[nH]c1=S | inactive |
| CC1CCc2[nH]c3ccc(C(=O)N(C)CC(=O)Nc4cccc(F)c4)cc3c2C1 (stereo not given) | inconclusive: 29.1 µM [cytotoxic, single point] |
| O=c1oc2ccc3ccccc3c2cc1-c1nc2c(s1)CCc1ccccc1-2 | inconclusive: 16.4 µM [rising, single point] |
| CC(=O)Nc1ccc(-c2ccnc3c2CC(C(=O)Nc2cccc(Oc4ccccc4)c2)O3)cc1 (stereo not given) | inconclusive: 29.1 µM [cytotoxic, single point] |
| O=C(Cc1c[nH]c2ccccc12)Nc1ccc(N2CCOCC2)cc1 | inconclusive: 0.82 µM [rising, full curve] |
| CCOC(=O)c1sc2nc(C(C)C)c3c(c2c1N)CC(C)(C)OC3 | inactive |
| COc1ccc(/C=C2\SC(=S)N(CCCC(=O)Nc3ccc(O)cc3)C2=O)cc1 | inconclusive: 29.1 µM [cytotoxic, single point] |
| COc1ccc(-c2cnnc(N/N=C/c3ccc(O)c(OC)c3)n2)cc1 | active: 4.11 µM |
| O=C(COC(=O)C1CCC1)NC(=O)c1ccccc1 | inconclusive: 20.6 µM [rising, partial curve, poor fit] |
| COc1ccc2cc(C3OCCO3)c(Cl)nc2c1 | inconclusive: 0.0046 µM [rising, full curve, poor fit] |
| CCOC(=O)NC(NCc1ccccc1)(C(F)(F)F)C(F)(F)F | inconclusive: 29.1 µM [rising, partial curve, poor fit] |
| O=C1CCCC(=O)C1Sc1ccc(Cl)cc1 | inconclusive: 29.1 µM [rising, single point] |
| CN1CCCN(c2ncnc3scc(-c4ccc(F)cc4)c23)CC1 | inactive |
| COc1cc(-c2nnc3n(CCc4ccccc4)c(=O)c4ccccc4n23)cc(OC)c1OC | inactive |

Structural class: the compounds so far containing a thiophene ring, fused or not

| Structure (SMILES) | Potency |
| --- | --- |
| CCOC(=O)c1sc2nc(C(C)C)c3c(c2c1N)CC(C)(C)OC3 | inactive |
| CN1CCCN(c2ncnc3scc(-c4ccc(F)cc4)c23)CC1 | inactive |
